Measured values: PubChem BioAssay AID488837 (National Center for Advancing Translational Sciences (NCATS), 2010)
The campaign covered roughly 330,000 compounds. About 20 (0.006%) were called active. Inconclusive means that the source gave no clear call. Such entries were picked first, then a sample of the others. Calls follow the shape of the dose curve; as a rule, active = well fitted inhibition curve with a large enough effect; inconclusive = small, poorly fitted or top-dose-only effect, or effect the other way; inactive = flat fitted curve, though single readings scatter. A potency beside an inconclusive call is a rough fit, not a confirmed value.

Sequences of proteins named here, by UniProt entry; tags and fusion partners are left off. A change or cut given only in a name is not applied to a line headed by its entry.
UniProt O00167: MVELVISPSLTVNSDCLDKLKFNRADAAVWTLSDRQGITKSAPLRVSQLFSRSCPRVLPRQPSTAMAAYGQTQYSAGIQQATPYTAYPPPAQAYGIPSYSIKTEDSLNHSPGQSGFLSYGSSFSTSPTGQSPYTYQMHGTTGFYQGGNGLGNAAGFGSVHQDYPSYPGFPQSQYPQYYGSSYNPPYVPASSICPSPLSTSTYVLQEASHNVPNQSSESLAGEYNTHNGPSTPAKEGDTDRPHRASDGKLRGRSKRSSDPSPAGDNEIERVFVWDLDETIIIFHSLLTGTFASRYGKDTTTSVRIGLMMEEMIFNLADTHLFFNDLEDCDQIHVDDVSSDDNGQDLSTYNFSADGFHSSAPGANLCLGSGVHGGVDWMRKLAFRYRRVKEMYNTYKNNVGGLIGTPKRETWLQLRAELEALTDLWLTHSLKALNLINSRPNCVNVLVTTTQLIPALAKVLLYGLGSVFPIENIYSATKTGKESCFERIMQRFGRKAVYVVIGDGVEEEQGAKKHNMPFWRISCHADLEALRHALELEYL

molecular target: Protein phosphatase EYA2 (Homo sapiens) (UniProt O00167); test: qHTS Assay for Inhibitors of the Phosphatase Activity of Eya2; settings: recombinant Eya2, OMFP fluorescence dephosphorylation (OMFP is methylfluorescein phosphate); activity, negative = inhibition: at 76.9 µM (top of the series)
From the text: The Eya family of proteins are essential co-activators of the Six1 transcription factor. Six1 is a developmental gene that is abnormally re-expressed in a large percentage of breast cancers. This over-expression plays a causal role in the initiation and metastatic development of breast cancers. The Eya family of proteins was also found to contain a unique HAD phosphatase domain with protein tyrosine phosphatase activity which can potentially play a role in Six1-mediated breast tumorigenesis. […] We have developed and optimized a 1536 well fluorescence-based HTS assay targeting the phosphatase activity of Eya2. Inhibitors found against Eya2 could serve as potential therapeutic tools to inhibit Six1-mediated breast tumorigenesis and to increase the efficiency of radiation and certain chemo therapy. These inhibitors could also be used as chemical probes to study the function of Eya2's phosphatase activity and its role in Six1-mediated breast tumorigenesis.
The Eya2 enzyme was kindly provided by the laboratory of Dr. Rui Zhao. The 3-O-methyl-fluorescein phosphate (OMFP) substrate and all buffer reagents were purchased from Sigma Aldrich. qHTS Assay Setup: 1. Buffer- 50 mM HEPES pH 7.5, 50 mM NaCl, 5 uM MgCl2, 0.05% BSA, 1 mM DTT. 2. OMFP Stock- 10 mM solution prepared in 100% DMSO and stored in single use aliquots at -20C. Assay Procedure- 1. Dispense 1.5 ul per well of Eya2 at 0.2 uM in black medium binding 1536 well Greiner plate 2. Transfer 23 nl of compound and control compound (EGTA) to plate 3. Incubate at ambient for 10 minutes 4. Dispense 1.5 ul per well of OMFP at 50 uM 5. Incubate at ambient for 10 minutes 6. Read on ViewLux using Excitation = 485 nm, Emission = 525 nm
% is scaled to controls: 0 for no effect and ±100 for the full control effect; potency is read from the fitted curve at half-maximal effect.

Row | SMILES | activity, negative = inhibition | Potency
1 | CC(C)CCNC(=O)c1c(N)n(CC2CCCO2)c2nc3ccccc3nc12 (stereo not drawn) | inactive: -21.2% | –
2 | Cc1cc(OC(=O)N(C)C)nc(-c2ccc(C)c(Cl)c2)n1 | – | inconclusive: 79.4 µM [inhibitor, single point]
3 | C[C@]12C=CC(=O)C=C1C=C[C@@H]1C2CC[C@]2(C)C(=O)CCC12 (stereo partly drawn) | – | inconclusive: 22.4 µM [inhibitor, single point]
4 | COc1ccc(C2=CC(c3ccc(OC)c(OC)c3)c3c(c4ccccc4oc3=O)O2)cc1OC (stereo not drawn) | – | inconclusive: 100 µM [inhibitor, single point]
5 | c1cncc(C2CCCCN2)c1 (stereo not drawn) | inconclusive: 31.6% [activator] | –
6 | CCOP(=O)(OCC)C(NC(=O)c1cccc([N+](=O)[O-])c1)C(Cl)(Cl)Cl (stereo not drawn) | – | inconclusive: 100 µM [inhibitor, single point]
7 | Nc1ccccc1-[n+]1c(-c2ccccc2)cc(-c2ccccc2)cc1-c1ccccc1 | – | inconclusive: 20 µM [inhibitor, single point]
8 | Cc1c(CC(=O)N2C[C@H]3C[C@@H](C2)c2cccc(=O)n2C3)c(=O)oc2cc(O)c(Cl)cc12 | – | inconclusive: 89.1 µM [inhibitor, single point]
9 | CC(C)c1ccc(-n2c(O)c(C=NCCN3CCNCC3)c(=O)[nH]c2=S)cc1 | – | inconclusive: 17.8 µM [inhibitor, partial curve, poor fit]
10 | COc1ccc(/C=C2/C(=O)NC(=O)N(Cc3ccco3)C2=O)cc1 | – | inconclusive: 63.1 µM [inhibitor, single point]
11 | CCn1nc(/C=C/c2ccccc2)nc2c(=O)n(C)c(=O)nc1-2 | inactive: -0.779% | –
12 | COC(=O)c1nc(-c2ccc3c(n2)C(=O)C(N)=C(OC)C3=O)c(N)c(-c2ccc(OC)c(OC)c2O)c1C | – | inconclusive: 100 µM [inhibitor, single point]
13 | Cc1oc(-c2ccccc2F)nc1CS(=O)CC(=O)N1CCC2(CC1)OCCO2 (stereo not drawn) | inactive: 0.474% | –
14 | CCOC(=O)C1=C(N)OC2=C(C(=O)CCC2)C12C(=O)N(C)c1ccccc12 (stereo not drawn) | – | inconclusive: 89.1 µM [inhibitor, single point]
15 | COc1ccc(Cn2c(O)c(/C=N/NC(=O)c3ccccc3)c(=O)[nH]c2=O)cc1 | inactive: 1.36% | –
16 | CC(=O)O[C@H]1CC[C@@]2(C)C(=CC(=O)C3C2CC[C@@]2(C)C3C[C@H](OC(C)=O)[C@@H]2OC(C)=O)C1 (stereo partly drawn) | inactive: -5.58% | –
17 | CC(=NCc1ccc2c(c1)OCO2)c1c(O)n(Cc2ccccc2)c(=O)[nH]c1=O | – | inconclusive: 79.4 µM [inhibitor, single point]
18 | CCOc1ccc(S(=O)(=O)N2CCC(C(=O)NCc3cccnc3)CC2)cc1Cl | – | inconclusive: 15.8 µM [inhibitor, single point]
19 | O=c1c2ccccc2nc(/C=C/c2ccco2)n1-c1ccccc1O | – | inconclusive: 100 µM [inhibitor, single point]
20 | O=S(=O)(c1ccc(Cl)cc1)N1CCCC1c1cccnc1 (stereo not drawn) | – | inconclusive: 79.4 µM [inhibitor, single point]
21 | CCN(CC)c1ccc(CNCCc2ccc(F)cc2)cc1 | inactive: 0.592% | –
22 | CN(C)c1ccc(C(O)P(=O)(OC2CCCCC2)OC2CCCCC2)cc1 (stereo not drawn) | – | inconclusive: 89.1 µM [inhibitor, single point]
23 | CCCCCn1c(=O)c(C(=O)Nc2ncccc2C)c(O)c2ccccc21 | – | inconclusive: 22.4 µM [inhibitor, single point]

Row | SMILES | activity, negative = inhibition | Potency
24 | CSc1ncc(/C=C2/C(=O)NC(=O)N(c3ccc(C)cc3)C2=O)cn1 | – | inconclusive: 112 µM [inhibitor, single point]
25 | CN(C)C(=O)Oc1ccc2c(c1)O/C(=C\c1ccc(Cl)cc1)C2=O | inactive: -1.3% | –
26 | CCC(CO)Nc1ccc([N+](=O)[O-])c2cccnc12 (stereo not drawn) | – | inconclusive: 31.6 µM [inhibitor, partial curve, poor fit]
27 | CC1C(C)N1CC(O)Cn1ccnc1[N+](=O)[O-] (stereo not drawn) | – | inconclusive: 35.5 µM [inhibitor, partial curve]
28 | O=[N+]([O-])c1ccc(N2CCCCC2)c2ncccc12 | inactive: -4.05% | –
29 | CCN(CC)C(=O)c1ccc(N(Cc2ccccc2)S(C)(=O)=O)cc1 | inactive: -8.17% | –
30 | COCCNC(=O)Cn1cc(/C=C2\C(=O)NC(=O)N(c3ccccc3F)C2=O)c2ccccc21 | inconclusive: 230% [activator] | –
31 | CC(C)CN1CCN(Cc2ccc(C(F)(F)F)cc2)CC1CCO (stereo not drawn) | – | inconclusive: 100 µM [inhibitor, single point]
32 | O=C(N/N=C/c1c(O)n(Cc2ccccc2)c(=O)[nH]c1=O)c1ccccc1O | inactive: 0.184% | –
33 | CC(C)[C@H](CN(N=O)[C@@H](Cc1ccccc1)CN(C)N=O)N(CCc1ccccc1)N=O | – | inconclusive: 17.8 µM [inhibitor, single point]
34 | CN1CCN(c2ccc([N+](=O)[O-])c3no[n+]([O-])c23)CC1 | – | inconclusive: 22.4 µM [inhibitor, single point]
35 | Clc1ccc(N2CCN(Cc3ccccc3Cl)CC2)cc1 | inactive: -1.45% | –
36 | Cc1cc(/C=C2/C(=O)NC(=O)N(Cc3ccco3)C2=O)c(C)n1-c1ccccc1 | inactive: 2.63% | –
37 | COc1cc(CN2CCN(C(=O)COc3ccccc3)CC2)cc(OC)c1OC | – | inconclusive: 17.8 µM [inhibitor, single point]
38 | CC[N+]12CCC(CC1)C(C(O)(c1ccccc1)c1ccccc1)C2 (stereo not drawn) | – | inconclusive: 200 µM [inhibitor, partial curve, poor fit]
39 | O=C(O)c1cccc2nc3ccccc3nc12 | – | inconclusive: 100 µM [inhibitor, single point]
40 | O=C1SC(Cc2ccccc2)C(=O)N1c1ccccc1 (stereo not drawn) | – | inconclusive: 100 µM [inhibitor, single point]
41 | COCCCNC(=S)NNC(=O)c1ccc(C(C)(C)C)cc1 | – | inconclusive: 22.4 µM [inhibitor, single point]
42 | Nc1ccc2nonc2c1[N+](=O)[O-] | – | inconclusive: 79.4 µM [activator, partial curve]
43 | COC(=O)C1C(O)C(C)C(O)C(C)/C=C\C=C(/C)C(=O)Nc2c(C)c(OC(C)=O)c3c(c2O)C(=O)C(C)=C2OCOC(=C23)/C(C)=C/C(C)(O)C(O)C(C)C1O (stereo not drawn) | – | inconclusive: 158 µM [inhibitor, partial curve]
44 | COc1ccc2c(c1)c(CCN1CCOCC1)c(C)n2C(=O)c1cccc(Cl)c1Cl | – | inconclusive: 100 µM [inhibitor, single point]
45 | O=C(O)c1ccccc1SSc1ccccc1C(=O)O | – | inconclusive: 100 µM [inhibitor, single point]
46 | COc1cc(C(=O)OC2C[C@H]3CC[C@@H](C2)N3)ccc1O (stereo partly drawn) | – | inconclusive: 100 µM [inhibitor, single point]

Some of these compounds in order of count of non-hydrogen atoms, falling:
Row | SMILES | activity, negative = inhibition | Potency
36 | Cc1cc(/C=C2/C(=O)NC(=O)N(Cc3ccco3)C2=O)c(C)n1-c1ccccc1 | inactive: 2.63% | –
35 | Clc1ccc(N2CCN(Cc3ccccc3Cl)CC2)cc1 | inactive: -1.45% | –
39 | O=C(O)c1cccc2nc3ccccc3nc12 | – | inconclusive: 100 µM [inhibitor, single point]

(further entries)

Row | SMILES | activity, negative = inhibition | Potency
47 | CCC(C)NC(=O)c1c(N)n(Cc2ccc3c(c2)OCO3)c2nc3ccccc3nc12 (stereo not drawn) | inactive: -7.11% | –
48 | COc1ccc(CN2C(=O)NC(=O)/C(=C/c3ccc([N+](=O)[O-])s3)C2=O)cc1 | inactive: -7.01% | –
49 | C[C@H]1CCC/C=C/C2C[C@H](O)CC2[C@H](O)/C=C/C(=O)O1 (stereo partly drawn) | inactive: -0.306% | –
50 | N#C/C(=C(/O)c1ccc(S(=O)(=O)N(CCCl)CCCl)cc1)c1nc2ccccc2[nH]1 | – | inconclusive: 100 µM [inhibitor, single point]
51 | O=S(=O)(NC1CCCC1)OCC(Cl)(Cl)Cl | – | inconclusive: 25.1 µM [inhibitor, single point]
52 | CCC(=NCc1cccnc1)c1c(O)n(-c2ccccc2C)c(=O)[nH]c1=O | – | inconclusive: 79.4 µM [inhibitor, partial curve, poor fit]
53 | CCOc1cccc(N2C(=O)/C(=C/c3ccco3)C(=O)NC2=S)c1 | – | inconclusive: 100 µM [inhibitor, single point]
54 | CC(C)=CCOc1c2occc2cc2ccc(=O)oc12 | – | inconclusive: 100 µM [inhibitor, single point]
55 | COc1cc(/C=C/[N+](=O)[O-])ccc1O | inactive: 6.79% | –
56 | Cc1ccc(/C=C2\C(=O)NC(=S)N(c3ccc(F)cc3)C2=O)o1 | inactive: 7.16% | –
57 | CN1C(=O)C(=Cc2cc([N+](=O)[O-])ccc2N2CCCCC2)C(=O)N(C)C1=O | inactive: 6.26% | –
58 | CC(C)n1c(/C=C/[C@H](O)C[C@H](O)CC(=O)O)c(-c2ccc(F)cc2)c2ccccc21 | – | inconclusive: 63.1 µM [inhibitor, single point]
59 | CC[C@]12C=CCN3CCC4(c5cc(Br)c(OC)cc5N(C)C4[C@@](O)(C(=O)OC)[C@@H]1OC(C)=O)C32 (stereo partly drawn) | – | inconclusive: 100 µM [inhibitor, single point]
60 | COc1ccc(N2C(=O)NC(=O)/C(=C\c3cn(C)c4ccccc34)C2=O)cc1 | inconclusive: 35% [activator] | –
61 | COc1ccc2nc(/N=C/c3c(O)n(-c4cccc(Cl)c4)c(=O)[nH]c3=O)sc2c1 | inactive: 10.2% | –
62 | COc1cc2c(cc1O)[C@@H]1Cc3ccc(OC)c(O)c3CN1CC2 | inactive: -0.429% | –
63 | Cc1nc(S(=O)(=O)N(C)Cc2ccccc2)c(C#N)c(C)c1Cl | – | inconclusive: 25.1 µM [inhibitor, single point]
64 | CC1=NCCc2c1[nH]c1cc(O)ccc21 | – | inconclusive: 25.1 µM [activator, partial curve]
65 | CN1CCC(N(C)c2nc(-c3ccc([N+](=O)[O-])cc3)nc3ccccc23)CC1 | inactive: -10.5% | –
66 | Nc1ccc2ccc3cccc[n+]3c2c1 | – | inconclusive: 25.1 µM [activator, partial curve]
67 | COCCNC(=O)N1[C@H]2CC[C@@H]1C(C(=O)OC)=C(c1ccc(-c3ccccc3)c(F)c1)C2 | inactive: -6.47% | –
68 | CCOC(=O)C1(CCc2ccccc2)CCN(Cc2csc(C(C)=O)c2)CC1 | – | inconclusive: 22.4 µM [inhibitor, single point]
